The values below come from patent publication US20070292409A1 (University of California, published 2007).

Amino acid sequences for entries named in this document (tags omitted). Residues count along the entry.
UniProt P60766, residues 1-188: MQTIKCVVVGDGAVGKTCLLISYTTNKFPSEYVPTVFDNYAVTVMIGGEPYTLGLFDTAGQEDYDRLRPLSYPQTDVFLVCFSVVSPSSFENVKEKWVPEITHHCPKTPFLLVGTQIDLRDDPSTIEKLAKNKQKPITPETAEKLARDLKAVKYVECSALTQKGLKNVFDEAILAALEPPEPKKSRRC
UniProt P26450, residues 2-724: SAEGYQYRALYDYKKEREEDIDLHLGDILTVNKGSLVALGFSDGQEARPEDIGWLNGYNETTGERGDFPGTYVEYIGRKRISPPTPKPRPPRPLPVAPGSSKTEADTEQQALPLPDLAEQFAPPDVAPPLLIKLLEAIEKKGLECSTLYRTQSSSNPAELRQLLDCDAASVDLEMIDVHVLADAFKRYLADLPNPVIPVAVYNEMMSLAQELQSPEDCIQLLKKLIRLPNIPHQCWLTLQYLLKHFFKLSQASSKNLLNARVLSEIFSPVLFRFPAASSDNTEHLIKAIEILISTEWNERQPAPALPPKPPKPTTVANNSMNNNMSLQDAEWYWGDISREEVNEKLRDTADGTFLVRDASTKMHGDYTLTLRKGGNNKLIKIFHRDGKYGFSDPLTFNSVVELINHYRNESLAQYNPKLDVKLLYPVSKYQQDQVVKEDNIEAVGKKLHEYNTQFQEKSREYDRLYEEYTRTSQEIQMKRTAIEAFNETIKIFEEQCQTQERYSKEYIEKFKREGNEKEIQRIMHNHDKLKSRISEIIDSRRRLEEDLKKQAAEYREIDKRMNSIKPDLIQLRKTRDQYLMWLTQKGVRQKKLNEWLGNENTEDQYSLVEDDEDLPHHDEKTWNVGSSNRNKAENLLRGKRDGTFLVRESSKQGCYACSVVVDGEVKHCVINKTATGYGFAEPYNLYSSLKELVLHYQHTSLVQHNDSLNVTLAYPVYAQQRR
UniProt P21279: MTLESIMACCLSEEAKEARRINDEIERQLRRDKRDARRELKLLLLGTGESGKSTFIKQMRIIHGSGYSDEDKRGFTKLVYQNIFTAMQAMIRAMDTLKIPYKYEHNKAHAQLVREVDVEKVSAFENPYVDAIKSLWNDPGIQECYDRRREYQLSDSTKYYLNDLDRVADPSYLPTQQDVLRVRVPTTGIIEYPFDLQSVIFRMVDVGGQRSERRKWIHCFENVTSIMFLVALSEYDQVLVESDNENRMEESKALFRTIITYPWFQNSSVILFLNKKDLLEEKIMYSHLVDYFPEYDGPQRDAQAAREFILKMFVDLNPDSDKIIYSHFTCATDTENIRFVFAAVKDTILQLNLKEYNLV
UniProt P35569: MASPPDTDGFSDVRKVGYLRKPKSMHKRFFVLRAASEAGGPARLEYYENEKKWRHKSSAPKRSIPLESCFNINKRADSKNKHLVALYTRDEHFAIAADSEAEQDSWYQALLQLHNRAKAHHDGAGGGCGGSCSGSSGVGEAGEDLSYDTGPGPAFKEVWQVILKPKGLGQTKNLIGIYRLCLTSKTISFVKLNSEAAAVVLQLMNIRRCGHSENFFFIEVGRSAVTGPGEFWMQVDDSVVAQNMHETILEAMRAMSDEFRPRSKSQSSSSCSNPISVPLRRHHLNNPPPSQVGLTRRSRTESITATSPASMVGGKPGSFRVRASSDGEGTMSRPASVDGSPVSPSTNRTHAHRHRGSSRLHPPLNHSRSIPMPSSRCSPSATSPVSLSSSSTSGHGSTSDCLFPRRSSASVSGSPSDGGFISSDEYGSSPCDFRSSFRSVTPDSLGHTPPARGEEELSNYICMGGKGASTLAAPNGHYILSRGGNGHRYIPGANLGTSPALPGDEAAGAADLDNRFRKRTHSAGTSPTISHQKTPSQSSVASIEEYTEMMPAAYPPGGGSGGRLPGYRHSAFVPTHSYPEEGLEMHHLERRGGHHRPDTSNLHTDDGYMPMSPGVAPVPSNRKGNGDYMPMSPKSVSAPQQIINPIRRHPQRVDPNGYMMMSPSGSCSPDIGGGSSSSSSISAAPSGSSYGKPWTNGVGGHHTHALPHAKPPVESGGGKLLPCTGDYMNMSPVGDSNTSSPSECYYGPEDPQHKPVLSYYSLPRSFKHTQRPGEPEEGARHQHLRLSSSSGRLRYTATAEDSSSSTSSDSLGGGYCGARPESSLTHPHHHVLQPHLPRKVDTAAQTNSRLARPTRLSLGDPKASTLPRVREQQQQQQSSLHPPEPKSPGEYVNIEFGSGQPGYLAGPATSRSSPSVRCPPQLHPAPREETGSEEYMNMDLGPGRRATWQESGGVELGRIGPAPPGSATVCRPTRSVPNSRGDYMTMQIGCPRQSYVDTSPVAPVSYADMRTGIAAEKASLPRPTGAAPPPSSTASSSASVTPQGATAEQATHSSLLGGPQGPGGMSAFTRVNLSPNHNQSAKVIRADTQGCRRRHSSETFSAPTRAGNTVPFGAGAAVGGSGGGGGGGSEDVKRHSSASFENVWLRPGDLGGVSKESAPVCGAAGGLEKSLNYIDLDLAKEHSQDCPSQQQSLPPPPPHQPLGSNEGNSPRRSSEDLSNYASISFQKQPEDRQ
UniProt Q13153, residues 67-150: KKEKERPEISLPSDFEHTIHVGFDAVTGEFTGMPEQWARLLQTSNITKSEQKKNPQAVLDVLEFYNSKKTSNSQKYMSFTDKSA

No constants are given. Whether binding was seen depends on the method and setting. Binding seen in cells or lysates may run through a third protein. Some results given as binding are weak or reduced against the parent protein; the word gives no strength.

The target of experiment [1] is cdc42, endogenous protein of 3T3-L1 adipocytes (UniProt P60766). The experiment is described as follows: pull-down of active cdc42 from 3T3-L1 adipocyte lysates with GST-PAK-1 agarose beads, anti-cdc42 blot.
For experiment [2], the target named is p85 (PI3-kinase subunit), endogenous protein of 3T3-L1 adipocytes (UniProt P26450). The experiment is described as follows: co-immunoprecipitation with anti-IRS-1 antibody, anti-p85 blot; 3T3-L1 adipocytes, 17 nM insulin for 10 min.
Experiment [3] shares this target. The experiment can be described thus: co-immunoprecipitation with anti-IRS-1 antibody, anti-p85 blot; 3T3-L1 adipocytes with or without 10 nM ET-1 for 24 h, 17 nM insulin for 10 min.
Experiment [4] has the same target. The experiment is described as follows: co-immunoprecipitation with anti-cdc42 antibody, anti-p85 blot; 3T3-L1 adipocytes, 17 nM insulin for 10 min; inhibited by overexpression of WT- or KD-GRK2.
The target of experiment [5] is G protein-q/11 α-subunit (Gαq/11), endogenous protein of 3T3-L1 adipocytes (UniProt P21279). The experiment can be described thus: co-immunoprecipitation with anti-GRK2 antibody, anti-Gαq/11 blot; 3T3-L1 adipocytes, 17 nM insulin time course.
The target is the same in experiment [6]. The experiment can be described thus: heading of the result section; co-immunoprecipitation from 3T3-L1 adipocyte lysates.
Experiment [7] shares this target. The experiment can be described thus: heading of the result section of Example 2; co-immunoprecipitation from 3T3-L1 adipocyte lysates.
Experiment [8] has the same target. The experiment can be described thus: co-immunoprecipitation with anti-GRK2 antibody, anti-Gαq/11 blot; 3T3-L1 adipocytes, 17 nM insulin or 10 nM ET-1 time course.
Experiment [9] concerns the target IRS-1, endogenous protein of 3T3-L1 adipocytes (UniProt P35569). The experiment can be described thus: co-immunoprecipitation with anti-GRK2 antibody, anti-IRS-1 blot; 3T3-L1 adipocytes, 10 nM ET-1 time course; insulin (17 nM) did not induce the association.

Regarding “GST-PAK-1 (PAK-1 agarose beads of the Upstate cdc42 assay kit) (from UniProt Q13153 67-150)”, the binding result in experiment [1] was “binds”.
Take “IRS-1, endogenous protein of 3T3-L1 adipocytes (from UniProt P35569 1-1233)”: the binding entry in experiment [2] and in [3] was “binds” throughout.
As for “cdc42, endogenous protein of 3T3-L1 adipocytes (from UniProt P60766 1-188)”, the binding entry in [4] is “binds”.

B1: G protein-coupled receptor kinase 2 (GRK2), endogenous protein of 3T3-L1 adipocytes (enzyme, UniProt Q99MK8 1-689, looked up)
chain: MADLEAVLADVSYLMAMEKSKATPAARASKKILLPEPSIRSVMQKYLEDRGEVTFEKIFSQKLGYLLFRDFCLNHLEEAKPLVEFYEEIKKYEKLETEEERVVRSREIFDSYIMKELLACSHPFSKNATEHVQGHLVKKQVPPDLFQPYIEEICQNLRGDVFQKFIESDKFTRFCQWKNVELNIHLTMNDFSVHRIIGRGGFGEVYGCRKADTGKMYAMKCLDKKRIKMKQGETLALNERIMLSLVSTGDCPFIVCMSYAFHTPDKLSFILDLMNGGDLHYHLSQHGVFSEADMRFYAAEIILGLEHMHNRFVVYRDLKPANILLDEHGHVRISDLGLACDFSKKRPHASVGTHGYMAPEVLQKGVAYDSSADWFSLGCMLFKLLRGHSPFRQHKTKDKHEIDRMTLTMAVELPDSFSPELRSLLEGLLQRDVNRRLGCLGRGAQEVKESPFFRSLDWQMVFLQKYPPPLIPPRGEVNAADAFDIGSFDEEDTKGIKLLDSDQELYRNFPLTISERWQQEVAETVFDTINAETDRLEARKKAKNKQLGHEEDYALGKDCIVHGYMSKMGNPFLTQWQRRYFYLFPNRLEWRGEGEAPQSLLTMEEIQSVEETQIKERKCLLLKIRGGKQFVLQCDSDPELVQWKKELRDAYREAQQLVQRVPKMKNKPRSPVVELSKVPLIQRGSANGL
notes: Precipitated from cell lysate with a rabbit polyclonal anti-GRK2 antibody; also called endogenous GRK2
For the molecule B1, the binding entry in experiment [5], in experiment [6], in experiment [7], in experiment [8] and in [9] was “binds” throughout.
